Laboratory results from the supplement of paper PMC12819154, “High-throughput peptide-centric local stability assay extends protein–ligand identification to membrane proteins, tissues and bacteria” (Nature Structural & Molecular Biology, 2025).
This is one part of the list. Small differences around the control level are noise.

Amino acid sequences for entries named in this document (tags omitted). A change or cut given only in a name is not applied to a line headed by its entry.
UniProt Q91W64: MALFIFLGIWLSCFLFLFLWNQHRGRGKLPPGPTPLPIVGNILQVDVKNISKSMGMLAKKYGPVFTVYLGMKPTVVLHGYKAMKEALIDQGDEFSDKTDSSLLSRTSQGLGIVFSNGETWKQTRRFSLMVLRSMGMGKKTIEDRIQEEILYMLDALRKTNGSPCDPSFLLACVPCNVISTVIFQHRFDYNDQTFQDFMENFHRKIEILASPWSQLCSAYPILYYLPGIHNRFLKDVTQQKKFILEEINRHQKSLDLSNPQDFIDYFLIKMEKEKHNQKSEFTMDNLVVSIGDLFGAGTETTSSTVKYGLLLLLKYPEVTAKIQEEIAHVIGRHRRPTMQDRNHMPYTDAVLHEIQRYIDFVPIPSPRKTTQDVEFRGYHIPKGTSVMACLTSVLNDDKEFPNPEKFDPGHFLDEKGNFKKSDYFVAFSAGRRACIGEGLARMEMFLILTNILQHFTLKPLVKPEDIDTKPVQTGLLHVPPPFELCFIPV
UniProt Q91ZE0: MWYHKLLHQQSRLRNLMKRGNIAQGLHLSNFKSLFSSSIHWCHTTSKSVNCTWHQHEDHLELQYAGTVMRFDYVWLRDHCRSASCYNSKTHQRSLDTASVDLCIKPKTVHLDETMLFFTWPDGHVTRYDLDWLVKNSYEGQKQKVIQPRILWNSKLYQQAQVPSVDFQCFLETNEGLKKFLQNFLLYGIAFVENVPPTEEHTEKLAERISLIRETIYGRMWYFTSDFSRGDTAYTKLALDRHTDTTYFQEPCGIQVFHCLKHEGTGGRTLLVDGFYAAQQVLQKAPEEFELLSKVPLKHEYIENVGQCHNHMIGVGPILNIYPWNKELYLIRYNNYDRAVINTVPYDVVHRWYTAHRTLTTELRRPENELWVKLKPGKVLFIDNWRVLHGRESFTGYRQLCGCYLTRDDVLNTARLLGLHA
UniProt Q91W82: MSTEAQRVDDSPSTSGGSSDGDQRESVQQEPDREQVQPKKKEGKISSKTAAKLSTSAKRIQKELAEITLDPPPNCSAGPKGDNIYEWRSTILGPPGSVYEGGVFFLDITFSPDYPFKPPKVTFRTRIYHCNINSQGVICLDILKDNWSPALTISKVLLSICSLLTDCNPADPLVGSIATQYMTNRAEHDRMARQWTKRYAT
UniProt Q8VHN8: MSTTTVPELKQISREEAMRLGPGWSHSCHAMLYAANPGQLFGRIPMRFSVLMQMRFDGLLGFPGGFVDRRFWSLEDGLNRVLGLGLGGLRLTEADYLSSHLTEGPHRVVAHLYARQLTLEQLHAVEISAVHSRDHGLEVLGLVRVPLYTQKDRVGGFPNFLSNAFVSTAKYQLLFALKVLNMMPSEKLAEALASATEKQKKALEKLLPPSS
UniProt Q91VM9: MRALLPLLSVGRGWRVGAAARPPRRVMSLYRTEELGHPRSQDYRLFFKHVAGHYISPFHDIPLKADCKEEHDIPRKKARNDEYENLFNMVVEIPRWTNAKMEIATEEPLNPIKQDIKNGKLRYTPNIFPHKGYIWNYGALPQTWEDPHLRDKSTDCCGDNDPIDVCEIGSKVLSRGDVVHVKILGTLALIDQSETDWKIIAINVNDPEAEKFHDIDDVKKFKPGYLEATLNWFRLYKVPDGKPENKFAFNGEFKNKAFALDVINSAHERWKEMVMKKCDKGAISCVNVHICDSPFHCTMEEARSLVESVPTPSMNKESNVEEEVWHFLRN

These targets were tested with CN[C@@H]1C[C@H]2O[C@@](C)([C@@H]1OC)n1c3ccccc3c3c4c(c5c6ccccc6n2c5c31)C(=O)NC4 [staurosporine] (assay: log2 fold change of tryptic peptide abundance, ligand vs vehicle (limited proteolysis) (log2 ratio); higher = more trypsin-susceptible (destabilized)). Conditions: ligand concentration: 20 uM; sample: mouse liver crude lysate; replicate design: treated separately.

| Target | log2 fold change |
| --- | --- |
| UniProt Q91W64 (peptide sequence: KTTQDVEFR, peptide start residue: 368) | -0.172 |
| UniProt Q91ZE0 (peptide sequence: FDYVWLR, peptide start residue: 71) | -0.278 |
| UniProt Q91W82 (peptide sequence: ESVQQEPDREQVQPK, peptide start residue: 25) | -0.0482 |
| UniProt Q8VHN8 (peptide sequence: QLTLEQLHAVEISAVHSR, peptide start residue: 116) | -0.274 |
| UniProt Q91VM9 (peptide sequence: ADCKEEHDIPR, peptide start residue: 65) | 0.178 |
